{"source": "PubChem BioAssay AID2685", "about": "(National Center for Advancing Translational Sciences (NCATS), 2010)", "assay": "qHTS Assay for Lipid Storage Modulators in Drosophila S3 Cells;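 on cell number change: cells counted by Cell Tracker Red CMTPX staining in the red channel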", "conditions": "BODIPY lipid droplet fluorescence, 18-24 h; for cell number change: measured here: cell count max response, cells fed with added oleic acid", "summary_of_the_method": "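Laser-scanning cytometry quantifies lipid droplet accumulation (500–530 nm total intensity; droplet/cell object ratio) in oleic acid-fed (400 uM added) Drosophila S3 cells treated with a concentration series. 20 uM Triacsin C defined 100% inhibition.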", "key": {"[1]": {"conditions": "measured here: lipid fluorescence (Fed channel) AC50, cells fed with added oleic acid"}, "[2]": {"conditions": "measured here: cell number channel AC50, cells fed with added oleic acid"}}, "note": "The list shows a part of the results. Shown are side measurements of this screen, not its main read-out; they come without a call. Most of these compounds were active or inconclusive in the main read-out, so they are no random draw. Words in brackets tell the shape of the fitted curve; partial curves, single points and poor fits give uncertain potencies."}
{"smiles": "COc1ccc2[nH]c(C(=O)Nc3ccc4c(c3)OCO4)cc2c1", "values": [{"measurement": "cell number change", "result": 45.3, "unit": "%"}, {"measurement": "AC50", "setting": "[1]", "result": "3.26 µM [rising, full curve]"}]}
{"smiles": "O=C(COc1ccccc1)N1CCN(S(=O)(=O)c2ccc(Cl)cc2)CC1", "values": [{"measurement": "AC50", "setting": "[2]", "result": "2.91 µM [rising, single point]"}]}
{"smiles": "CC(C)CC(=O)Nc1c2c(nn1-c1cccc(Cl)c1)CS(=O)C2", "note": "(configuration not stated)", "values": [{"measurement": "cell number change", "result": 20.9, "unit": "%"}, {"measurement": "AC50", "setting": "[1]", "result": "7.31 µM [rising, partial curve]"}]}
{"smiles": "O=C(Oc1ccc(Cl)c2cccnc12)c1cccnc1", "values": [{"measurement": "cell number change", "result": 22.3, "unit": "%"}, {"measurement": "AC50", "setting": "[1]", "result": "29.1 µM [rising, single point]"}]}
{"smiles": "CC12CN(C(=O)c3ccccc3)C3(C#N)CC1CCC23C", "note": "(configuration not stated)", "values": [{"measurement": "cell number change", "result": -8.59, "unit": "%"}, {"measurement": "AC50", "setting": "[1]", "result": "0.731 µM [falling, full curve]"}]}
{"smiles": "Cc1nc(NC(=O)/C=C/c2ccco2)sc1C", "values": [{"measurement": "cell number change", "result": 15.5, "unit": "%"}, {"measurement": "AC50", "setting": "[1]", "result": "5.8 µM [rising, partial curve]"}]}
{"smiles": "COc1ccc(C(=O)Nc2nnc(CCc3ccccc3)s2)c(OC)c1", "values": [{"measurement": "cell number change", "result": -12.4, "unit": "%"}, {"measurement": "AC50", "setting": "[1]", "result": "29.1 µM [falling, single point]"}]}
{"smiles": "CCOC(=O)c1c(/N=C/c2cccc([N+](=O)[O-])c2O)sc(C)c1C", "values": [{"measurement": "cell number change", "result": -16.3, "unit": "%"}, {"measurement": "AC50", "setting": "[1]", "result": "2.59 µM [rising, full curve]"}]}
{"smiles": "Cc1[nH]c(=O)[nH]c(=O)c1S(=O)(=O)Nc1cccc(C(F)(F)F)c1", "values": [{"measurement": "cell number change", "result": -8.51, "unit": "%"}, {"measurement": "AC50", "setting": "[2]", "result": "1.84 µM [rising, partial curve, poor fit]"}, {"measurement": "AC50", "setting": "[1]", "result": "0.326 µM [rising, full curve]"}]}
{"smiles": "CCC(C)NCCOCCOc1ccc(F)cc1", "note": "(configuration not stated)", "values": [{"measurement": "cell number change", "result": -108, "unit": "%"}, {"measurement": "AC50", "setting": "[2]", "result": "14.6 µM [falling, partial curve]"}, {"measurement": "AC50", "setting": "[1]", "result": "29.1 µM [falling, partial curve]"}]}
{"smiles": "Cc1cccc(C)c1NC(=O)CNC(=O)c1c(C)nn(-c2ccccc2)c1Cl", "values": [{"measurement": "cell number change", "result": 61, "unit": "%"}, {"measurement": "AC50", "setting": "[2]", "result": "5.8 µM [rising, full curve, poor fit]"}]}
{"smiles": "CN(Cc1ccccc1)CC1CCCN(CCc2ccccc2F)C1", "note": "(configuration not stated)", "values": [{"measurement": "cell number change", "result": -2.75, "unit": "%"}, {"measurement": "AC50", "setting": "[1]", "result": "32.6 µM [falling, single point]"}]}
{"smiles": "O=C1c2cccc3cccc(c23)C(=O)N1CC1CCCO1", "note": "(configuration not stated)", "values": [{"measurement": "cell number change", "result": -21.3, "unit": "%"}]}
{"smiles": "CC(=O)N(C(C)=O)S(=O)(=O)c1ccc(N=NN2CCCCC2)cc1", "values": [{"measurement": "cell number change", "result": -48.5, "unit": "%"}, {"measurement": "AC50", "setting": "[2]", "result": "29.1 µM [falling, single point]"}, {"measurement": "AC50", "setting": "[1]", "result": "0.146 µM [rising, full curve]"}]}
{"smiles": "O=C(Nn1cnnc1)c1ccccc1Cl", "values": [{"measurement": "cell number change", "result": 15, "unit": "%"}, {"measurement": "AC50", "setting": "[1]", "result": "0.461 µM [rising, full curve, poor fit]"}]}
{"smiles": "CS(=O)(=O)c1ccc(SCC(=O)NC2CCS(=O)(=O)C2)c([N+](=O)[O-])c1", "note": "(configuration not stated)", "values": [{"measurement": "cell number change", "result": -17.5, "unit": "%"}]}
{"smiles": "COC(=O)C(NNc1ccccc1C)(NC(=O)c1ccc(F)cc1)C(F)(F)F", "note": "(configuration not stated)", "values": [{"measurement": "cell number change", "result": -61.9, "unit": "%"}, {"measurement": "AC50", "setting": "[2]", "result": "4.61 µM [falling, partial curve]"}, {"measurement": "AC50", "setting": "[1]", "result": "25.9 µM [falling, single point]"}]}
{"smiles": "O=C1NC2(CCCCCC2)C(=O)N1CCS(=O)(=O)Oc1ccccc1", "values": [{"measurement": "cell number change", "result": 38.7, "unit": "%"}, {"measurement": "AC50", "setting": "[2]", "result": "29.1 µM [rising, single point]"}]}
{"smiles": "COc1ccc(CCNc2cc(C)[nH]c(=O)c2)cc1OC", "values": [{"measurement": "cell number change", "result": 23.7, "unit": "%"}]}
{"smiles": "O=C(Nc1cc(F)cc(F)c1)c1ccc(NCCc2ccccc2)c([N+](=O)[O-])c1", "values": [{"measurement": "cell number change", "result": -39.1, "unit": "%"}, {"measurement": "AC50", "setting": "[2]", "result": "16.4 µM [falling, single point]"}, {"measurement": "AC50", "setting": "[1]", "result": "29.1 µM [falling, single point]"}]}
{"smiles": "CCOc1ccc(NC(=O)Cn2nnc(C(=O)NCCc3ccc(OC)c(OC)c3)c2N)cc1", "values": [{"measurement": "cell number change", "result": 18.9, "unit": "%"}, {"measurement": "AC50", "setting": "[1]", "result": "20.6 µM [rising, single point]"}]}
{"smiles": "Cc1ccc(Cl)cc1N1CCN(S(C)(=O)=O)CC1", "values": [{"measurement": "cell number change", "result": 7.28, "unit": "%"}]}
{"smiles": "COc1cc2c(cc1OC)C(c1ccc3c(c1)OCO3)CC(=O)N2", "note": "(configuration not stated)", "values": [{"measurement": "cell number change", "result": 37.2, "unit": "%"}, {"measurement": "AC50", "setting": "[2]", "result": "25.9 µM [rising, single point]"}, {"measurement": "AC50", "setting": "[1]", "result": "29.1 µM [rising, single point]"}]}
{"smiles": "Cc1cc(C(=O)CSc2nnnn2C)c(C)n1-c1ccc2c(c1)OCCO2", "values": [{"measurement": "cell number change", "result": -5.1, "unit": "%"}]}
{"smiles": "O=c1oc2ccc(Cl)cc2cc1-c1ccccc1", "values": [{"measurement": "cell number change", "result": -7.21, "unit": "%"}]}
{"smiles": "O=C(CCCN1C(=O)c2ccccc2C1=O)Nc1ccc(S(=O)(=O)N2CCOCC2)cc1", "values": [{"measurement": "cell number change", "result": -1.08, "unit": "%"}]}
{"smiles": "CCOc1c(OC)cccc1C(=O)NCC1(c2ccccc2)CCCC1", "values": [{"measurement": "cell number change", "result": -4.26, "unit": "%"}, {"measurement": "AC50", "setting": "[2]", "result": "2.59 µM [rising, single point]"}]}
{"smiles": "COc1ccc(-n2nc(C(=O)NCC(=O)N3CCC(C)CC3)c3ccccc3c2=O)cc1", "values": [{"measurement": "cell number change", "result": 22.5, "unit": "%"}, {"measurement": "AC50", "setting": "[1]", "result": "0.82 µM [falling, full curve]"}]}
{"smiles": "CCCCn1c(SCC(=O)NCc2ccco2)nc2c(sc3ccccc32)c1=O", "values": [{"measurement": "cell number change", "result": 14.2, "unit": "%"}, {"measurement": "AC50", "setting": "[1]", "result": "1.46 µM [rising, full curve]"}]}
{"smiles": "O=C(CN1C(=O)NC2(CCCC2)C1=O)Nc1ccc(OC(F)(F)F)cc1", "values": [{"measurement": "cell number change", "result": 11.4, "unit": "%"}, {"measurement": "AC50", "setting": "[1]", "result": "6.51 µM [falling, single point]"}]}
{"smiles": "COc1ccc(CNS(=O)(=O)c2cn(C)c(=O)n(C)c2=O)cc1", "values": [{"measurement": "cell number change", "result": -19.9, "unit": "%"}, {"measurement": "AC50", "setting": "[1]", "result": "0.58 µM [falling, full curve]"}]}
{"smiles": "Cc1ccc2oc(=O)c3cc(C(=O)N4CCN(C)CC4)sc3c2c1", "values": [{"measurement": "cell number change", "result": 9.68, "unit": "%"}, {"measurement": "AC50", "setting": "[2]", "result": "0.13 µM [rising, partial curve, poor fit]"}]}
